Results: PubChem BioAssay AID504834 (National Center for Advancing Translational Sciences (NCATS), 2011)
Among all 320,000 compounds or so, about 22,000 (6.9%) were called active. The inconclusive results got no clear call from the source; some entries with a clear call stand among them for comparison. The call rests on the fitted dose curve; in most records, active means well fitted inhibition curve with a large enough effect; inconclusive means small, poorly fitted or top-dose-only effect, or another doubt; inactive means no such curve, though single readings can be large or run the other way. Potencies of inconclusive entries are doubtful fits and often do not repeat.

Assay: Primary qHTS for delayed death inhibitors of the malarial parasite plastid, 96 hour incubation
Conditions: P. falciparum luciferase reporter growth; series mostly up to 28.7 µM; activity change, negative = inhibition: at the top concentration
Outline: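 Erythrocytes infected with luciferase-expressing P. falciparum were dispensed at 2% hematocrit and 0.05% parasitemia (final), then incubated with compounds 96 hours at 37 C in 5% CO2. Luminescence after detection reagent addition reported growth.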
On the % scale 0 is the no-effect control and ±100 the full control effect; potency means the concentration at half of the fitted maximal effect.

Structure (SMILES) | Potency | activity change, negative = inhibition
Cc1ccc(NC(=O)CN(C)C(=O)c2cccnc2Nc2cccc(C(F)(F)F)c2)cc1 | active: 9.28 µM | –
O=c1cc(CSc2nnc(-c3ccco3)o2)c2ccccc2[nH]1 | inconclusive: 18.5 µM [inhibitor, single point] | –
O=C(COc1ccccc1)N(Cc1cccc(F)c1)C1CCS(=O)(=O)C1 (stereo not drawn) | inconclusive: 14.7 µM [inhibitor, partial curve, poor fit] | –
COc1cccc(C(=O)C2CCCN(Cc3ccc4nsnc4c3)C2)c1 (stereo not drawn) | – | inactive: -16.5%
c1ccc(Nc2nc(-c3ccccc3)ns2)cc1 | – | inactive: 203%
O=C(Nc1ccccc1C(=O)N1CCCCCC1)c1ccc(Cl)cc1 | – | inactive: 49.3%
COc1ccc(C2=NN(C(=O)CCC(=O)O)C(c3ccc(F)cc3)C2)cc1 (stereo not drawn) | active: 14.7 µM | –
COc1ccc(NC(=S)N(CCN2CCOCC2)C2CCN(C(C)=O)CC2)cc1Cl | inconclusive: 16.5 µM [inhibitor, single point] | –
CC(=O)c1ccccc1C(=O)N1CCCC(C(=O)c2ccc(C(F)(F)F)cc2)C1 (stereo not drawn) | – | inactive: 51.9%
CCO/N=C(\C)c1c(O)c2ccccc2n(C)c1=O | – | inactive: 11.7%
COc1cc(C(=O)OC2CC3CCC2(C)C3(C)C)ccc1OC(C)=O (stereo not drawn) | inconclusive: 2.08 µM [inhibitor, full curve] | –
Cc1ccc(-n2c(-c3ccco3)n[nH]c2=S)cc1 | inconclusive: 18.5 µM [inhibitor, single point] | –
CCN1/C(=C/c2ccc3ccccc3[n+]2CCCS(=O)(=O)[O-])C=Cc2cc(C)ccc21 | – | inactive: -26.5%
O=C(O)c1ccnc(C(=O)O)c1 | – | inactive: 8.62%
CSc1ccc(C(=S)N2CCCC2)cc1 | inconclusive: 16.5 µM [inhibitor, partial curve, poor fit] | –
Cc1ccc2cc(C(c3nnnn3C(C)(C)C)N3CCCCCC3)c(=O)[nH]c2c1 (stereo not drawn) | inconclusive: 13.1 µM [inhibitor, single point] | –
COc1ccc(S(=O)(=O)N2CCCCC2)cc1NC(=O)CSc1ncnc2ccccc12 | active: 2.33 µM | –
C[N+](C)(C)CCCC(=O)c1ccc2c(c1)OCO2 | inconclusive: 10.4 µM [inhibitor, single point] | –
CN(C)C(CNC(=S)Nc1cccc(Cl)c1)c1ccccc1 (stereo not drawn) | inconclusive: 18.5 µM [inhibitor, single point] | –
O=C(CCCNC(=O)c1ccc(Cl)cc1)Nc1cccc(F)c1 | inconclusive: 18.5 µM [inhibitor, single point] | –
Cc1c(C(=O)NC2CCN(Cc3ccccc3)C2)oc2c(Cl)cccc12 (stereo not drawn) | – | inactive: -1.64%
COCCCNC(=O)CCc1nc2cccnc2n1Cc1ccccc1 | active: 8.28 µM | –
Cc1cccc(N2N=C(C(=O)Nc3ccc(Cl)c(S(=O)(=O)N4CCOCC4)c3)CCC2=O)c1 | inconclusive: 11.7 µM [inhibitor, partial curve, poor fit] | –
O=C(Nc1nc(-c2nc3ccccc3s2)cs1)C1COc2ccccc2O1 (stereo not drawn) | – | inactive: 139%

Quoted from above for reference:
Structure (SMILES) | Potency | activity change, negative = inhibition
CC(=O)c1ccccc1C(=O)N1CCCC(C(=O)c2ccc(C(F)(F)F)cc2)C1 (stereo not drawn) | – | inactive: 51.9%
CCO/N=C(\C)c1c(O)c2ccccc2n(C)c1=O | – | inactive: 11.7%

The list continues:

Structure (SMILES) | Potency | activity change, negative = inhibition
Cc1cc(C)cc(C(=O)Nc2nnc(SCC(=O)N3CCCc4ccccc43)s2)c1 | – | inactive: 9.97%
Clc1ccccc1-c1nnn(Cc2ccc(-c3nn[nH]n3)cc2)n1 | inconclusive: 10.4 µM [inhibitor, single point] | –
COC(=O)c1cn(CC(=O)Nc2ccccc2C)c2ccccc12 | inconclusive: 18.5 µM [inhibitor, single point] | –
O=C(Cc1cccs1)N1CCC(c2nc3c(nnn3Cc3ccccc3)c(=O)[nH]2)CC1 | inconclusive: 11.7 µM [inhibitor, single point] | –
c1ccc(CSc2nnc3ccc(-c4ccncc4)nn23)cc1 | inconclusive: 0.0037 µM [inhibitor, full curve, poor fit] | –
O=C(Cc1ccccc1)OCC(=O)c1ccccc1 | active: 11.7 µM | –
CCN(CC)S(=O)(=O)c1cnccc1N1CCN(c2cccc(Cl)c2)CC1 | active: 2.94 µM | –
CCC12CC3CC(C1)CC(C(=O)NNC(N)=O)(C3)C2 | – | inactive: 0%
O=C(NCCC1=CCCCC1)C1CCN(S(=O)(=O)c2ccccc2C(F)(F)F)CC1 | inconclusive: 18.5 µM [inhibitor, single point] | –
O=C(NC1CCCc2ccccc21)C1CCCO1 (stereo not drawn) | inconclusive: 18.5 µM [inhibitor, partial curve, poor fit] | –
O=C(COc1ccccc1Cl)Nc1cccnc1 | – | inactive: -11.5%
CCc1ccc(NS(=O)(=O)c2cccc3nonc23)cc1 | – | inactive: 0.74%
Cc1cccn2c1nc(=S)n2C(=O)c1ccco1 | – | inactive: 23.4%
O=C(c1ccccc1O)N1N=C(c2ccccc2)CC1(O)C(F)(F)F (stereo not drawn) | inconclusive: 3.29 µM [inhibitor, full curve, poor fit] | –
O=C(O)c1cccc(NC(=S)N/N=C/c2c[nH]c3ccccc23)c1 | inconclusive: 20.8 µM [inhibitor, partial curve, poor fit] | –
COc1ccc(N2C(=O)c3ccccc3NC2(C)C)cc1 | inconclusive: 0.185 µM [inhibitor, full curve, poor fit] | –
COc1ccc2cc(S(=O)(=O)NCc3cccnc3)ccc2c1 | – | inactive: -8.46%
Cc1nn(-c2ccccc2)c2[nH]c(=O)c(CNCC3CCCO3)cc12 (stereo not drawn) | inconclusive: 0.294 µM [inhibitor, full curve] | –
O=c1cc(C(Cl)(Cl)Cl)oc2c1ccc1ccccc12 | active: 0.262 µM | –
Cc1cccc(N2CCN(C(=S)Nc3ccc4nc(N5CCOCC5)cc(C)c4c3)CC2C)c1 (stereo not drawn) | inconclusive: 0.0029 µM [inhibitor, full curve, poor fit] | –
COC(=O)c1cccc(-n2c(C)cc(C=O)c2C)c1 | inconclusive: 18.5 µM [inhibitor, single point] | –
Cc1ccc(-c2csc(NC(=O)C[n+]3cc(-c4ccccc4)n4c3CCC4)n2)cc1 | inconclusive: 5.22 µM [inhibitor, partial curve, poor fit] | –
CCN1CCc2c(OCc3ccc(C)cc3)cccc2C1=O | – | inactive: -17.8%
Cc1ccc(CSCC(=O)N/N=C/c2ccc(OCC(=O)Nc3ccc(C)cc3)cc2)cc1 | inconclusive: 20.8 µM [inhibitor, partial curve, poor fit] | –
